These results are taken from patent US20140127225A1 (NEOTOPE BIOSCIENCES, published 2014).

The chains behind the UniProt entries cited, without tags or fusion partners. Where a name states a change or a piece, a line headed by the entry shows the natural chain unless it says otherwise.
UniProt P01024: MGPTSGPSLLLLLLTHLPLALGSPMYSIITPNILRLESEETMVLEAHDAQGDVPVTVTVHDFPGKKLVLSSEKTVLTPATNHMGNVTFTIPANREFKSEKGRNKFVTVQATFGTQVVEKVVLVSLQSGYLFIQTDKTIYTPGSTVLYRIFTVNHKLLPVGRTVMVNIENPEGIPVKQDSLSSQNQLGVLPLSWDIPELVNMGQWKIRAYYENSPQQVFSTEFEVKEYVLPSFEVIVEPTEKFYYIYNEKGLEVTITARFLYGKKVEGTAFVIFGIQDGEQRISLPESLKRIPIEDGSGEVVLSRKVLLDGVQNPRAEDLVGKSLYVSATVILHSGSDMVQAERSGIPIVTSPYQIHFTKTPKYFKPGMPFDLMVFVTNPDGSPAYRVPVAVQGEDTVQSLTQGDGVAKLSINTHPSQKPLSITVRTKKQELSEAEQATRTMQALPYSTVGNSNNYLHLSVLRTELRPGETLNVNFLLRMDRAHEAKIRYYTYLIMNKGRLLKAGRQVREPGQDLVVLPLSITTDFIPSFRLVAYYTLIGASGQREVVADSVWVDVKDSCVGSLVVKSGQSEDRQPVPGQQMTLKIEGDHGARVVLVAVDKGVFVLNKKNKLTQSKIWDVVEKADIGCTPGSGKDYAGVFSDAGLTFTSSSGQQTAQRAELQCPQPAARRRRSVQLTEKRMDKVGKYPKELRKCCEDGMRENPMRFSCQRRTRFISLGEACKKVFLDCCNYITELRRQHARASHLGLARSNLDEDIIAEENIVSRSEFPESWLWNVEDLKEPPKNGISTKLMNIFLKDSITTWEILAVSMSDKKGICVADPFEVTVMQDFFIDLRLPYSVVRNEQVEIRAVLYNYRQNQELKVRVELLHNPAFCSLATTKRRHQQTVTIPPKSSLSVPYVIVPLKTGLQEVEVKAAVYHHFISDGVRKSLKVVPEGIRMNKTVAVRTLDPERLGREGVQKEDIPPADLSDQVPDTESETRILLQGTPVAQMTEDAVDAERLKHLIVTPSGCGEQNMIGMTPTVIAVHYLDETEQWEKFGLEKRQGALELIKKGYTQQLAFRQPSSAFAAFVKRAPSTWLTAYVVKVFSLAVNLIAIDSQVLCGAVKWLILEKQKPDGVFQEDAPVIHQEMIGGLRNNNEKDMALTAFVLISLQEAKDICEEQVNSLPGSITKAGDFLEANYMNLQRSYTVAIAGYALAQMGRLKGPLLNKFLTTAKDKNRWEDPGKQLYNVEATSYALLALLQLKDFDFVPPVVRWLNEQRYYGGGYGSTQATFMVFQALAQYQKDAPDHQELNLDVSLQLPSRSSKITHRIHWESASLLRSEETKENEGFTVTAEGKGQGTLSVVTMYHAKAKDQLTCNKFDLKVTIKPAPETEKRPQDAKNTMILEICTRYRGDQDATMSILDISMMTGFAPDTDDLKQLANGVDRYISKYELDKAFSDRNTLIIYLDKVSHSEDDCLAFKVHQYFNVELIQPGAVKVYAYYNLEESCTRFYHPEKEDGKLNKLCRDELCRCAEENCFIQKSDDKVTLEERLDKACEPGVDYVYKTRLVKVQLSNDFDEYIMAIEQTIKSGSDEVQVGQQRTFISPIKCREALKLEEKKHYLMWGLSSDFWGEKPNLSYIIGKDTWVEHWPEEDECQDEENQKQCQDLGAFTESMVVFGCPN

This assay concerns the target human iC3b (purified; Complement Technology #A115) (human) (UniProt P01024). Put plainly: sandwich ELISA on C3, C3b or iC3b; one bar per antigen, y axis without a label. For orientation: In an ELISA, binding on a coated surface is turned into a signal by an enzyme label.

Results are given in words; binding and its absence hold for the method and conditions named. Some binding calls cover weakened binding; strength is not graded here.

B1: mouse monoclonal antibody 2H8r (antibody, V domains shown)
VH: QIQLVQSGPELKKPGETVKISCKASGYTFTNYGMNWVKQAPGKGLKWMGWINTYTGEPTYADDFKGRFAFSLETSASTAYLQINNLKNEDMATYFCAKGGYPHYYSMDYWGQGTSVTVSS
VL: DIQMTQTTSSLSASLGDRVTISCRASQDISNYLNWYQQKPDGTVKLLIYYTSRLHSGVPSRFSGSGSGTDYSLTISNLEQEDIATYFCQQGKTLPRTFGGGTKLEIKR
notes: also called m2H8r
For the molecule B1, the binding result is reported as “binds”.
